From publication PMC11414387

Sequences of proteins named here, by UniProt entry; tags and fusion partners are left off.
UniProt P35222: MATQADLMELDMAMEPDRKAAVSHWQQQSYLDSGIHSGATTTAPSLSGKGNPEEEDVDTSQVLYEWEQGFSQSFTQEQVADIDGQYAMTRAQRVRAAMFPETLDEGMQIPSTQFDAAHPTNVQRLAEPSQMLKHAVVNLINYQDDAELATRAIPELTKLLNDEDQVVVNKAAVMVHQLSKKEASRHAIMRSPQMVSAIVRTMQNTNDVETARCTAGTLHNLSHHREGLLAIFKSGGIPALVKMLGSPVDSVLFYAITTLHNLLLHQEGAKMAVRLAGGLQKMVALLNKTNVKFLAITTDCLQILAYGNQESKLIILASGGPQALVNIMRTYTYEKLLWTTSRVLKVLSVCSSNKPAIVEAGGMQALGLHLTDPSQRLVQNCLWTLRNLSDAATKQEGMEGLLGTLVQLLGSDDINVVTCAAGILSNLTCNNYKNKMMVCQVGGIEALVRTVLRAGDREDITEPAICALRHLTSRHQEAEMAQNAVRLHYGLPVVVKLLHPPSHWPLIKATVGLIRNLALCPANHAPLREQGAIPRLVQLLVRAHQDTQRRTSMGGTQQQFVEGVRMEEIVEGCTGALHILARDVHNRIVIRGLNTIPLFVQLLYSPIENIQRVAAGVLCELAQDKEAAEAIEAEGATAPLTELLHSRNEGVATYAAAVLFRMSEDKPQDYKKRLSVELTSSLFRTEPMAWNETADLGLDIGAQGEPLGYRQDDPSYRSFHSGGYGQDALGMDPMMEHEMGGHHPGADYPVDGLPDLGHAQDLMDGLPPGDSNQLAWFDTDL
UniProt Q15208: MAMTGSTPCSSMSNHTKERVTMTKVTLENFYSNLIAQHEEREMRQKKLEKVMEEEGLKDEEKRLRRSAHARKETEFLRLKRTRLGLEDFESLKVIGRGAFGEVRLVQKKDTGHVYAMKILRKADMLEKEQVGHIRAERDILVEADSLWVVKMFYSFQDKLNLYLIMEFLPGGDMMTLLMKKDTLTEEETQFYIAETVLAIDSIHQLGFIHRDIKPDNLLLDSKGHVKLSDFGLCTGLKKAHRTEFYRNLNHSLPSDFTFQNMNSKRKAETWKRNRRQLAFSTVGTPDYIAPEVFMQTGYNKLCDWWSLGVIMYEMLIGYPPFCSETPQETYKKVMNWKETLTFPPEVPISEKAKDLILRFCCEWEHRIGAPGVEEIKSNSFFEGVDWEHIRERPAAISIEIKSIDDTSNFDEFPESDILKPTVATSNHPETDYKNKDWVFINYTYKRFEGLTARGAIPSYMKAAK

Assays:
[1] = biological target: β-catenin (bait of the mass spectrometry analysis) (UniProt P35222); assay: affinity purification with mass spectrometry; MS analysis of the molecules bound to NDR1 and β-catenin; protein gel strips digested, LC-MS/MS (timsTOF pro), Mascot search
[2] = biological target: NDR1 (bait of the mass spectrometry analysis) (UniProt Q15208); assay: as above

binding [1]: binds
binding [2]: binds
B1: E3 ubiquitin ligase FBXO11 (found by mass spectrometry) (enzyme, UniProt Q86XK2 1-927)
chain: MNSVRAANRRPRRVSRPRPVQQQQQQPPQQPPPQPPQQQPPQQQPPPPPQQQQQQQPPPPPPPPPPLPQERNNVGERDDDVPADMVAEESGPGAQNSPYQLRRKTLLPKRTACPTKNSMEGASTSTTENFGHRAKRARVSGKSQDLSAAPAEQYLQEKLPDEVVLKIFSYLLEQDLCRAACVCKRFSELANDPILWKRLYMEVFEYTRPMMHPEPGKFYQINPEEYEHPNPWKESFQQLYKGAHVKPGFAEHFYSNPARYKGRENMLYYDTIEDALGGVQEAHFDGLIFVHSGIYTDEWIYIESPITMIGAAPGKVADKVIIENTRDSTFVFMEGSEDAYVGYMTIRFNPDDKSAQHHNAHHCLEITVNCSPIIDHCIIRSTCTVGSAVCVSGQGACPTIKHCNISDCENVGLYITDHAQGIYEDNEISNNALAGIWVKNHGNPIIRRNHIHHGRDVGVFTFDHGMGYFESCNIHRNRIAGFEVKAYANPTVVRCEIHHGQTGGIYVHEKGRGQFIENKIYANNFAGVWITSNSDPTIRGNSIFNGNQGGVYIFGDGRGLIEGNDIYGNALAGIQIRTNSCPIVRHNKIHDGQHGGIYVHEKGQGVIEENEVYSNTLAGVWVTTGSTPVLRRNRIHSGKQVGVYFYDNGHGVLEDNDIYNHMYSGVQIRTGSNPKIRRNKIWGGQNGGILVYNSGLGCIEDNEIFDNAMAGVWIKTDSNPTLRRNKIHDGRDGGICIFNGGRGLLEENDIFRNAQAGVLISTNSHPILRKNRIFDGFAAGIEITNHATATLEGNQIFNNRFGGLFLASGVNVTMKDNKIMNNQDAIEKAVSRGQCLYKISSYTSYPMHDFYRCHTCNTTDRNAICVNCIKKCHQGHDVEFIRHDRFFCDCGAGTLSNPCTLAGEPTHDTDTLYDSAPPIESNTLQHN

These are yes or no findings as the source states them, for the method shown. Binding seen in cells or lysates may run through a third protein. These calls come from enrichment with a bait or labelling near it, and not all partners need be listed.
